This passage reports cell number change and AC50 results from PubChem BioAssay AID2685 (National Center for Advancing Translational Sciences (NCATS), 2010).

The nature of this assay: qHTS Assay for Lipid Storage Modulators in Drosophila S3 Cells.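 For cell number change: cells counted by Cell Tracker Red CMTPX staining in the red channel.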 As to conditions: BODIPY lipid droplet fluorescence, 18-24 h; for cell number change: measured here: cell count max response, cells fed with added oleic acid. The essentials: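 Laser-scanning cytometry quantifies lipid droplet accumulation (500–530 nm total intensity; droplet/cell object ratio) in oleic acid-fed (400 uM added) Drosophila S3 cells treated with a concentration series. 20 uM Triacsin C defined 100% inhibition.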
A general note: qHTS replaces the single test concentration by a dilution series.

The mark [1] stands for this setting: measured here: lipid fluorescence (Fed channel) AC50, cells fed with added oleic acid.
The mark [2] stands for this setting: measured here: cell number channel AC50, cells fed with added oleic acid.

The structures appear in SMILES notation. The list shows a part of the results. Further columns of the screen follow, without active or inactive calls. Most of these compounds were active or inconclusive in the main read-out, so they are no random draw. Words in brackets tell the shape of the fitted curve; partial curves, single points and poor fits give uncertain potencies.

Broadly, the AC50 is the midpoint of the concentration-response curve, whichever way the signal moves.

Consider `O=C1C2C3C=CC(C3)C2C(=O)N1Cc1ccccc1` (configuration not stated), for which the cell number change worked out at 19.5%. In addition, under setting [1], the half-maximal activity concentration (AC50) was 0.00461 µM [falling, full curve, poor fit].

On to `NC(=O)CC(NC(=O)c1cccc(Br)c1)c1ccc(NC2CCC2)c([N+](=O)[O-])c1` (configuration not stated), for which the cell number change is 17.8%. Besides, the AC50 under setting [2] was 0.731 µM [rising, full curve, poor fit].

`O=S(=O)(c1ccc(NC(=S)NCCC(c2ccccc2)c2ccccc2)cc1)N1CCOCC1`: the cell number change worked out at 83.3%. Besides, the AC50 under setting [2] was 9.2 µM [rising, partial curve]. The AC50 under setting [1] was 29.1 µM [falling, single point].

As for `CCCCn1c(N)c(-c2nc3ccccc3s2)c2c([N+](=O)[O-])nn(C)c(=O)c21`, under setting [1], the AC50 is 0.411 µM [rising, partial curve, poor fit].

Take `Cc1ccc(-c2nnn3c2nc(NCCc2ccc(S(N)(=O)=O)cc2)c2ccccc23)cc1`: the cell number change was -2.51%.

For `Cc1noc(/C=C/c2ccco2)c1S(=O)(=O)N1CCC(C(=O)Nc2ccc(Cl)cn2)CC1`, the cell number change was -12.1%. For the same compound, the AC50 under setting [2] is 1.84 µM [falling, partial curve, poor fit]. The AC50 under setting [1] was 6.51 µM [rising, single point].

With `COc1cccc(-n2nnnc2S(C)(=O)=O)c1`, the cell number change is -74.1%. For the same compound, the AC50 under setting [2] was 29.1 µM [falling, single point]. The AC50 under setting [1] was 16.4 µM [falling, partial curve].

Regarding `O=C(Cc1ccccc1)Nc1ccc(NC(=S)NC(=O)c2ccccc2)cc1`, the cell number change stood at 5.68%. Also, the AC50 under setting [1] was 0.259 µM [rising, partial curve, poor fit].

Take `Cc1cc2nc3n(c2cc1C)CC1CC(C(=O)NCCC(C)C)N(C)C31` (configuration not stated): the cell number change amounted to 26.2%. Further, the AC50 under setting [1] was 29.1 µM [rising, single point].

`CCc1ccc2c(COC(=O)C3CC(=O)N(CCc4ccccc4)C3)cc(=O)oc2c1` (configuration not stated): the cell number change was 15.7%.

Consider `O=C(O)CCCCCCCCCCCNC(=O)NC12CC3CC(CC(C3)C1)C2`, for which the cell number change is -30.4%. Besides, under setting [2], the AC50 is 32.6 µM [falling, single point]. In addition, the AC50 under setting [1] is 14.6 µM [falling, single point].

In the case of `CCOC(=O)c1ccc(CSC(=N)N)o1`, the cell number change was determined as 3.39%.

As to `COc1ccccc1-c1nnc(SC(C)C(=O)N2CCOCC2)o1` (configuration not stated), the cell number change amounted to 37.3%. The AC50 under setting [2] is 8.2 µM [rising, partial curve].

With `CC(=O)c1ccc(NC(=O)COC(=O)c2c3c(nc4ccccc24)/C(=C\c2cccs2)CCC3)cc1`, the cell number change was -67.7%. Also, the AC50 under setting [2] is 6.51 µM [falling, partial curve]. For the same compound, under setting [1], the AC50 was 4.11 µM [falling, full curve, poor fit].

As to `CC1CCC2C(=O)N(c3ccc(C(=O)NCc4ccccc4)cc3)C(=O)C2C1` (configuration not stated), the cell number change is -30.3%. In addition, the AC50 under setting [2] is 29.1 µM [falling, single point]. In addition, the AC50 under setting [1] is 29.1 µM [falling, single point].
